The list shows a part of the results.
What was measured:
Experiment in all cases: glycan array binding signal (z-score within array); higher = stronger binding
Conditions in all cases: glycan notation: IUPAC condensed, linker removed
[1] = target: Glc(b1-4)Glc
Method in brief: (§1)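 Columns mapping to the same glycan were averaged after glycan names were converted to IUPAC-condensed notation. The data come from 3228 arrays in the Consortium for Functional Glycomics database, limited to those with an available protein sequence. Binding is reported as a within-array Z-score averaged across arrays of one protein sequence and across linkers.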

[2] = target: Glc(b1-6)Glc
Method in brief: as §1

[3] = target: GlcA(b1-3)Gal
Method in brief: as §1

[4] = target: GlcA(b1-3)GlcNAc
Method in brief: as §1

[5] = target: GlcA(b1-6)Gal
Method in brief: as §1

[6] = target: GlcA3S(b1-3)Gal(b1-4)GlcNAc(b1-2)Man
Method in brief: as §1

[7] = target: GlcA3S(b1-3)Gal(b1-4)GlcNAc(b1-3)Gal(b1-4)Glc
Method in brief: as §1

[8] = target: GlcNAc(a1-3)Gal(b1-4)GlcNAc
Method in brief: as §1

[9] = target: GlcNAc(a1-4)Gal(b1-3)GlcNAc
Method in brief: as §1

[10] = target: GlcNAc(a1-4)Gal(b1-4)GalNAc
Method in brief: as §1

[11] = target: GlcNAc(a1-4)Gal(b1-4)GlcNAc
Method in brief: as §1

[12] = target: GlcNAc(a1-4)Gal(b1-4)GlcNAc(b1-3)Gal(b1-4)Glc
Method in brief: as §1

[13] = target: GlcNAc(a1-4)Gal(b1-4)GlcNAc(b1-3)Gal(b1-4)GlcNAc
Method in brief: as §1

[14] = target: GlcNAc(a1-4)Gal(b1-4)GlcNAc(b1-3)Gal(b1-4)GlcNAc(b1-3)Gal(b1-4)GlcNAc
Method in brief: as §1

[15] = target: GlcNAc(a1-4)Gal(b1-4)GlcNAc(b1-3)Gal(b1-4)[Fuc(a1-3)]GlcNAc(b1-3)Gal(b1-4)[Fuc(a1-3)]GlcNAc
Method in brief: as §1

[16] = target: GlcNAc(a1-6)Gal(b1-4)GlcNAc
Method in brief: as §1

[17] = target: GlcNAc(b1-2)Gal(b1-3)GalNAc
Method in brief: as §1

[18] = target: GlcNAc(b1-2)Man(a1-3)[GlcNAc(b1-2)Man(a1-6)]Man(b1-4)GlcNAc(b1-4)GlcNAc
Method in brief: as §1

[19] = target: GlcNAc(b1-2)Man(a1-3)[GlcNAc(b1-2)Man(a1-6)]Man(b1-4)GlcNAc(b1-4)[Fuc(a1-6)]GlcNAc
Method in brief: as §1

[20] = target: GlcNAc(b1-2)Man(a1-3)[GlcNAc(b1-4)][GlcNAc(b1-2)Man(a1-6)]Man(b1-4)GlcNAc(b1-4)GlcNAc
Method in brief: as §1

[21] = target: GlcNAc(b1-2)Man(a1-3)[GlcNAc(b1-4)][GlcNAc(b1-2)Man(a1-6)]Man(b1-4)GlcNAc(b1-4)[Fuc(a1-6)]GlcNAc
Method in brief: as §1

[22] = target: GlcNAc(b1-2)[GlcNAc(b1-4)]Man(a1-3)[GlcNAc(b1-2)Man(a1-6)]Man(b1-4)GlcNAc(b1-4)GlcNAc
Method in brief: as §1

[23] = target: GlcNAc(b1-2)[GlcNAc(b1-4)]Man(a1-3)[GlcNAc(b1-4)][GlcNAc(b1-2)Man(a1-6)]Man(b1-4)GlcNAc(b1-4)GlcNAc
Method in brief: as §1

[24] = target: GlcNAc(b1-2)[GlcNAc(b1-4)]Man(a1-3)[GlcNAc(b1-4)][GlcNAc(b1-2)[GlcNAc(b1-6)]Man(a1-6)]Man(b1-4)GlcNAc(b1-4)GlcNAc
Method in brief: as §1

[25] = target: GlcNAc(b1-2)[GlcNAc(b1-4)]Man(a1-3)[GlcNAc(b1-4)][GlcNAc(b1-2)[GlcNAc(b1-6)]Man(a1-6)]Man(b1-4)GlcNAc(b1-4)[Fuc(a1-6)]GlcNAc
Method in brief: as §1

[26] = target: GlcNAc(b1-2)[GlcNAc(b1-6)]Man(a1-6)[GlcNAc(b1-2)Man(a1-3)]Man(b1-4)GlcNAc(b1-4)GlcNAc
Method in brief: as §1

[27] = target: GlcNAc(b1-2)[GlcNAc(b1-6)]Man(a1-6)[GlcNAc(b1-2)Man(a1-3)]Man(b1-4)GlcNAc(b1-4)[Fuc(a1-6)]GlcNAc
Method in brief: as §1

[28] = target: GlcNAc(b1-2)[GlcNAc(b1-6)]Man(a1-6)[GlcNAc(b1-4)][GlcNAc(b1-2)Man(a1-3)]Man(b1-4)GlcNAc(b1-4)GlcNAc
Method in brief: as §1

[29] = target: GlcNAc(b1-3)Fuc
Method in brief: as §1

[30] = target: GlcNAc(b1-3)Gal
Method in brief: as §1

[31] = target: GlcNAc(b1-3)Gal(b1-3)GalNAc
Method in brief: as §1

[32] = target: GlcNAc(b1-3)Gal(b1-4)Glc
Method in brief: as §1

[33] = target: GlcNAc(b1-3)Gal(b1-4)GlcNAc
Method in brief: as §1

[34] = target: GlcNAc(b1-3)Gal(b1-4)GlcNAc(b1-2)Man(a1-3)[GlcNAc(b1-3)Gal(b1-4)GlcNAc(b1-2)Man(a1-6)]Man(b1-4)GlcNAc(b1-4)GlcNAc
Method in brief: as §1

[35] = target: GlcNAc(b1-3)Gal(b1-4)GlcNAc(b1-2)Man(a1-3)[GlcNAc(b1-3)Gal(b1-4)GlcNAc(b1-2)Man(a1-6)]Man(b1-4)GlcNAc(b1-4)[Fuc(a1-6)]GlcNAc
Method in brief: as §1

[36] = target: GlcNAc(b1-3)Gal(b1-4)GlcNAc(b1-2)[GlcNAc(b1-3)Gal(b1-4)GlcNAc(b1-6)]Man(a1-6)[GlcNAc(b1-3)Gal(b1-4)GlcNAc(b1-2)Man(a1-3)]Man(b1-4)GlcNAc(b1-4)GlcNAc
Method in brief: as §1

[37] = target: GlcNAc(b1-3)Gal(b1-4)GlcNAc(b1-3)Gal(b1-4)GlcNAc
Method in brief: as §1

[38] = target: GlcNAc(b1-3)Gal(b1-4)GlcNAc(b1-3)Gal(b1-4)GlcNAc(b1-2)Man(a1-3)[GlcNAc(b1-3)Gal(b1-4)GlcNAc(b1-3)Gal(b1-4)GlcNAc(b1-2)Man(a1-6)]Man(b1-4)GlcNAc(b1-4)GlcNAc
Method in brief: as §1

[39] = target: GlcNAc(b1-3)Gal(b1-4)GlcNAc(b1-3)Gal(b1-4)GlcNAc(b1-2)Man(a1-3)[GlcNAc(b1-3)Gal(b1-4)GlcNAc(b1-3)Gal(b1-4)GlcNAc(b1-2)Man(a1-6)]Man(b1-4)GlcNAc(b1-4)[Fuc(a1-6)]GlcNAc
Method in brief: as §1

[40] = target: GlcNAc(b1-3)Gal(b1-4)GlcNAc(b1-3)Gal(b1-4)GlcNAc(b1-2)[GlcNAc(b1-3)Gal(b1-4)GlcNAc(b1-3)Gal(b1-4)GlcNAc(b1-6)]Man(a1-6)[GlcNAc(b1-3)Gal(b1-4)GlcNAc(b1-3)Gal(b1-4)GlcNAc(b1-2)Man(a1-3)]Man(b1-4)GlcNAc(b1-4)[Fuc(a1-6)]GlcNAc
Method in brief: as §1

[41] = target: GlcNAc(b1-3)Gal(b1-4)GlcNAc(b1-3)Gal(b1-4)GlcNAc(b1-3)Gal(b1-4)GlcNAc(b1-2)Man(a1-3)[GlcNAc(b1-3)Gal(b1-4)GlcNAc(b1-3)Gal(b1-4)GlcNAc(b1-3)Gal(b1-4)GlcNAc(b1-2)Man(a1-6)]Man(b1-4)GlcNAc(b1-4)GlcNAc
Method in brief: as §1

[42] = target: GlcNAc(b1-3)Gal(b1-4)GlcNAc(b1-3)Gal(b1-4)GlcNAc(b1-3)Gal(b1-4)GlcNAc(b1-2)Man(a1-3)[GlcNAc(b1-3)Gal(b1-4)GlcNAc(b1-3)Gal(b1-4)GlcNAc(b1-3)Gal(b1-4)GlcNAc(b1-2)Man(a1-6)]Man(b1-4)GlcNAc(b1-4)[Fuc(a1-6)]GlcNAc
Method in brief: as §1

[43] = target: GlcNAc(b1-3)Gal(b1-4)GlcNAc(b1-3)Gal(b1-4)GlcNAc(b1-3)Gal(b1-4)GlcNAc(b1-2)[GlcNAc(b1-3)Gal(b1-4)GlcNAc(b1-3)Gal(b1-4)GlcNAc(b1-3)Gal(b1-4)GlcNAc(b1-6)]Man(a1-6)[GlcNAc(b1-3)Gal(b1-4)GlcNAc(b1-3)Gal(b1-4)GlcNAc(b1-3)Gal(b1-4)GlcNAc(b1-2)Man(a1-3)]Man(b1-4)GlcNAc(b1-4)[Fuc(a1-6)]GlcNAc
Method in brief: as §1

[44] = target: GlcNAc(b1-3)Gal(b1-4)GlcNAc(b1-3)Gal(b1-4)GlcNAc(b1-3)Gal(b1-4)GlcNAc(b1-3)Gal(b1-4)GlcNAc(b1-2)Man(a1-3)[GlcNAc(b1-3)Gal(b1-4)GlcNAc(b1-3)Gal(b1-4)GlcNAc(b1-3)Gal(b1-4)GlcNAc(b1-3)Gal(b1-4)GlcNAc(b1-2)Man(a1-6)]Man(b1-4)GlcNAc(b1-4)GlcNAc
Method in brief: as §1

[45] = target: GlcNAc(b1-3)Gal(b1-4)GlcNAc(b1-3)Gal(b1-4)GlcNAc(b1-3)Gal(b1-4)GlcNAc(b1-3)Gal(b1-4)GlcNAc(b1-2)Man(a1-3)[GlcNAc(b1-3)Gal(b1-4)GlcNAc(b1-3)Gal(b1-4)GlcNAc(b1-3)Gal(b1-4)GlcNAc(b1-3)Gal(b1-4)GlcNAc(b1-2)Man(a1-6)]Man(b1-4)GlcNAc(b1-4)[Fuc(a1-6)]GlcNAc
Method in brief: as §1

B1: OS9-MRH (Homo sapiens), Q13438 (protein)
chain: IPELLSPMRDAPCLLKTKDWWTYEFCYGRHIQQYHMEDSEIKGEVLYLGYYQSAFDWDDETAKASKQHRLKRYHSQTYGNGSKCDLNGRPREAEVRFLCDEGAGISGDYIDRVDEPLSCSYVLTIRTPRLCPHPLLRPPPSAAPQAI
- glycan array binding signal (z-score) [1]: 1.18
- glycan array binding signal (z-score) [2]: 0.162
- glycan array binding signal (z-score) [3]: -0.296
- glycan array binding signal (z-score) [4]: -0.168
- glycan array binding signal (z-score) [5]: 0.988
- glycan array binding signal (z-score) [6]: -0.608
- glycan array binding signal (z-score) [7]: 0.422
- glycan array binding signal (z-score) [8]: 0.873
- glycan array binding signal (z-score) [9]: -0.601
- glycan array binding signal (z-score) [10]: -0.021
- glycan array binding signal (z-score) [11]: -1.31
- glycan array binding signal (z-score) [12]: 0.259
- glycan array binding signal (z-score) [13]: -0.159
- glycan array binding signal (z-score) [14]: 0.556
- glycan array binding signal (z-score) [15]: 1.12
- glycan array binding signal (z-score) [16]: -0.291
- glycan array binding signal (z-score) [17]: 0.439
- glycan array binding signal (z-score) [18]: -0.182
- glycan array binding signal (z-score) [19]: -0.237
- glycan array binding signal (z-score) [20]: -0.121
- glycan array binding signal (z-score) [21]: 0.231
- glycan array binding signal (z-score) [22]: 0.159
- glycan array binding signal (z-score) [23]: 0.926
- glycan array binding signal (z-score) [24]: -1.46
- glycan array binding signal (z-score) [25]: -0.206
- glycan array binding signal (z-score) [26]: -0.716
- glycan array binding signal (z-score) [27]: 1.88
- glycan array binding signal (z-score) [28]: -1.33
- glycan array binding signal (z-score) [29]: 0.282
- glycan array binding signal (z-score) [30]: 0.223
- glycan array binding signal (z-score) [31]: -0.313
- glycan array binding signal (z-score) [32]: -0.975
- glycan array binding signal (z-score) [33]: -0.269
- glycan array binding signal (z-score) [34]: -0.732
- glycan array binding signal (z-score) [35]: -0.413
- glycan array binding signal (z-score) [36]: -0.014
- glycan array binding signal (z-score) [37]: 0.469
- glycan array binding signal (z-score) [38]: -0.844
- glycan array binding signal (z-score) [39]: 0.656
- glycan array binding signal (z-score) [40]: -0.25
- glycan array binding signal (z-score) [41]: -0.043
- glycan array binding signal (z-score) [42]: -0.434
- glycan array binding signal (z-score) [43]: 0.876
- glycan array binding signal (z-score) [44]: -1.22
- glycan array binding signal (z-score) [45]: 0.242

— the supplement of paper PMC8728848
